The results in this text go back to paper PMC10097714.

One data set addresses TDP-43 G287S (human) (UniProt Q13148). In words: EMSA (agarose). Particulars: EMSA: 20 mM PIPES-NaOH pH 6.8, 150 mM NaCl, 0.8 mM MgCl2, 10% glycerol, 0.1 mg/ml BSA, 0.1 mg/ml poly-dI-dC, 25 C, gel 0.5x TBE pH 6.8; recombinant protein; residues 1-414; protein details: untagged; label: 5' Cy3, 3' Alexa Fluor 647.
The target in another data set is TDP-43 M337V (human) (UniProt Q13148). The data set is described as follows: EMSA (agarose). The note with it: EMSA: 20 mM PIPES-NaOH pH 6.8, 150 mM NaCl, 0.8 mM MgCl2, 10% glycerol, 0.1 mg/ml BSA, 0.1 mg/ml poly-dI-dC, 25 C, gel 0.5x TBE pH 6.8; recombinant protein; residues 1-414; protein details: untagged; label: 5' Cy3, 3' Alexa Fluor 647.
The target in data set [1] is GST-GR G287S (human) (UniProt Q13148). The data set is described as follows: UV cross-linking, SDS-PAGE. Particulars: n.s. vs WT; UV cross-linking: EMSA buffer without poly-dI-dC; recombinant protein; protein details: GST; label: 5' Cy3, 3' Alexa Fluor 647.
Data set [2] has as its target GST-GR M337V (human) (UniProt Q13148). In words: UV cross-linking, SDS-PAGE. The note with it: n.s. vs WT; UV cross-linking: EMSA buffer without poly-dI-dC; recombinant protein; protein details: GST; label: 5' Cy3, 3' Alexa Fluor 647.
In data set [3] the target is GST-GR G287S (human) (UniProt Q13148). In words: SPR. The note with it: 50 nM protein, no significant difference from WT; 3' DNA dA16 tail on RNA; SPR: 20 mM PIPES pH 6.8, 12 mM KCl, 0.8 mM MgCl2, 150 mM NaCl, 0.05% Tween-20, 25 C; recombinant protein; protein details: GST.
Data set [4] addresses GST-GR M337V (human) (UniProt Q13148). In words: SPR. Particulars: 50 nM protein, no significant difference from WT; 3' DNA dA16 tail on RNA; SPR: 20 mM PIPES pH 6.8, 12 mM KCl, 0.8 mM MgCl2, 150 mM NaCl, 0.05% Tween-20, 25 C; recombinant protein; protein details: GST.
Data set [5] concerns the target GST-GR G287S (human) (UniProt Q13148). In words: CD. Particulars: 1 uM each, positive peak increased; recombinant protein; protein details: GST.
Data set [6] concerns the target GST-GR M337V (human) (UniProt Q13148). The data set is described as follows: CD. Particulars: 1 uM each, positive peak increased; recombinant protein; protein details: GST.
A further data set relates to GST-GR G287S + His-RRM. In words: GST pull-down, western blot. Particulars: reduced His-RRM recruitment; pull-down: PIPES pH 6.8, 145 mM NaCl, 5.4 mM KCl, 0.8 mM MgCl2, 1.8 mM CaCl2, 0.05% Tween-20, 10% glycerol, 4 C; recombinant protein; protein details: GST,His.
The test system of a further data set is GST-GR M337V + His-RRM. In words: GST pull-down, western blot. Particulars: reduced His-RRM recruitment; pull-down: PIPES pH 6.8, 145 mM NaCl, 5.4 mM KCl, 0.8 mM MgCl2, 1.8 mM CaCl2, 0.05% Tween-20, 10% glycerol, 4 C; recombinant protein; protein details: GST,His.
A further data set concerns GST-GR WT + His-RRM. The data set is described as follows: GST pull-down, western blot. The note with it: ternary complex, no RRM-GR interaction without RNA; pull-down: PIPES pH 6.8, 145 mM NaCl, 5.4 mM KCl, 0.8 mM MgCl2, 1.8 mM CaCl2, 0.05% Tween-20, 10% glycerol, 4 C; recombinant protein; protein details: GST,His.
Data set [7] deals with GST-RRMwm R151A,D247A (human) (UniProt Q13148). In words: EMSA (agarose). Particulars: reduced at low concentration, near WT at 10x; EMSA: 20 mM PIPES-NaOH pH 6.8, 150 mM NaCl, 0.8 mM MgCl2, 10% glycerol, 0.1 mg/ml BSA, 0.1 mg/ml poly-dI-dC, 25 C, gel 0.5x TBE pH 6.8; recombinant protein; residues 101-261; protein details: GST; label: 3' Alexa Fluor 647.

For part of these data: Weaker means in comparison with the reference protein, sequence or condition of that experiment. For part of these data: Construct, isoform or probe ends are uncertain for at least one entry.

GGGGAAAAGGGAGGGAUGGG [Cy3-PSD-Ax647]: the binding result with TDP-43 G287S (human) is reported as “binds more weakly”; in the data set with TDP-43 M337V (human), “binds more weakly”; in the data set with GST-GR G287S (human) [1], “binds”; in the data set with GST-GR M337V (human) [2], “binds”.

For the sequence “GGGGAAAAGGGAGGGAUGGGAAAAAAAAAAAAAAAA [PSD-95 G4 dA16]”, the binding result in the data set with GST-GR G287S (human) [3] and with GST-GR M337V (human) [4] was “binds” throughout.

Turning to UGGGGGGGGCGGGUGGGA [Cy3-CaMKII-Ax647], the binding result in the data set with TDP-43 G287S (human) was “binds more weakly”; with TDP-43 M337V (human) it was “binds more weakly”; in the data set with GST-GR G287S (human) [1], “binds”; with GST-GR M337V (human) [2], “binds”.

With UGGGGGGGGCGGGUGGGAUGGGA [CaMKIIa G4], the binding result is on record as “binds” with GST-GR G287S (human) [5]; “binds” with GST-GR M337V (human) [6]; “binds more weakly” in the data set with GST-GR G287S + His-RRM; “binds more weakly” in the data set on GST-GR M337V + His-RRM; “binds” with GST-GR WT + His-RRM.

As for “UGGGGGGGGCGGGUGGGAUGGGAAAAAAAAAAAAAAAAA [CaMKIIa G4 dA16]”, the binding result with GST-GR G287S (human) [3] and with GST-GR M337V (human) [4] was “binds” in each case.

Take UGUGUGUGUGUGUGUGUGUG [UG10-Ax647]: the binding result in data set [7] is recorded as “binds more weakly”.
